From paper PMC4108472, “Characterization of a Novel BCHE “Silent” Allele: Point Mutation (p.Val204Asp) Causes Loss of Activity and Prolonged Apnea with Suxamethonium” (PLoS ONE, 2014)
Results are given in words; binding and its absence hold for the method and conditions named. Some entries that bind do so weakly or less than the wild type.

Chains of the proteins cited; added tags and fusions are not shown. Residues count along the entry.
UniProt P02768, residues 25-609: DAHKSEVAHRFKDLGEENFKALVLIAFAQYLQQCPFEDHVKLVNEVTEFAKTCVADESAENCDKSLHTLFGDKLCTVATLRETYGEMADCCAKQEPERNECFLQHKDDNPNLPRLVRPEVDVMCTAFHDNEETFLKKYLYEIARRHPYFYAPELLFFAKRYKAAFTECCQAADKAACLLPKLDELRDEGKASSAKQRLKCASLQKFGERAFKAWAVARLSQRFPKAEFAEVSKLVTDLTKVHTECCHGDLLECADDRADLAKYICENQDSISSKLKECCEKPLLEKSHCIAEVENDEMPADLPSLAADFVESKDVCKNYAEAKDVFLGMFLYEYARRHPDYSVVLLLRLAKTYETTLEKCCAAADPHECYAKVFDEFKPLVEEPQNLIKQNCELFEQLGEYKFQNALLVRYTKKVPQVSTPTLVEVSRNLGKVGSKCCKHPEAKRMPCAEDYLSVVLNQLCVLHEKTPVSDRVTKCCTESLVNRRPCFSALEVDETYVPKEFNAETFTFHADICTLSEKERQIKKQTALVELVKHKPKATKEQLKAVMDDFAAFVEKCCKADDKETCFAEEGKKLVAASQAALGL
UniProt P06276, residues 29-602: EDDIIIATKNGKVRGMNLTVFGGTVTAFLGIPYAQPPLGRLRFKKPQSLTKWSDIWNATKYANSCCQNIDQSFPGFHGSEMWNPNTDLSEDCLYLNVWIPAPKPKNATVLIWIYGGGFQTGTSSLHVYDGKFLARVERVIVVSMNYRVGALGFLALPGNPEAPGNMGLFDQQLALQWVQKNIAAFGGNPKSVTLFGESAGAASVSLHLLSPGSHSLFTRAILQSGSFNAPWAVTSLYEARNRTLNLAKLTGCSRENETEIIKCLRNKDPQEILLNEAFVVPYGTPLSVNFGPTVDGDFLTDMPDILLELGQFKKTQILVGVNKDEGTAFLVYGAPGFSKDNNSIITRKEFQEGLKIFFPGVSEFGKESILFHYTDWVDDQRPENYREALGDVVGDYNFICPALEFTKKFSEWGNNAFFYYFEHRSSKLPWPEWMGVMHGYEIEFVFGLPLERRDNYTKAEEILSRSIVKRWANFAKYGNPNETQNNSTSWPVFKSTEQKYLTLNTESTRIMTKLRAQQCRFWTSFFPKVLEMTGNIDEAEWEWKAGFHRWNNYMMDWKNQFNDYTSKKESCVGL

Target: albumin of human plasma (human (endogenous in plasma)) (UniProt P02768)
Assay: native gel or EMSA; nondenaturing gradient gel (4–30%) of plasma samples (5 µL/lane), bands stained for BChE activity with BTC as the substrate

With “Butyrylcholinesterase (usual, wild-type) of human plasma (from UniProt P06276 29-602) (enzyme)” the binding was “binds”.
